This note sets out measurements from patent US9705096B2, “Organic transistor, compound, organic semiconductor material for non-light-emitting organic semiconductor device, material for organic transistor, coating solution for non-light-emitting organic semiconductor device, organic semiconductor film for non-light-emitting organic semiconductor device, …” (FUJIFILM Corporation, priority 2014, dated 2017).

A short description of series [1]: Carrier mobility of organic transistor element, semiconductor layer formed from compound alone (Example 2, bottom gate/bottom contact). To be noted: compound alone cast from toluene; bottom gate/bottom contact FET; −80 V source-drain, gate 20 V to −100 V; normal pressure/nitrogen.
Series [2] is described as follows: Threshold voltage shift after repeated driving (Example 2 elements). The note with it: compound alone; driven 100 times, gate +20 V to −100 V; |Vafter−Vbefore|.
The nature of series [3]: Variation of element (carrier mobility difference between first and second element). The note with it: difference in carrier mobility between first and second element.
Series [4] in a line: Heat resistance of element (decrease in mobility after heating). To be noted: element heated 30 minutes at 150° C. on a hot plate.
Series [5] can be described thus: Carrier mobility, semiconductor layer formed from compound and PαMS binder (Example 3). The note with it: compound 1 mg with 1 mg PαMS binder in toluene, bottom gate/bottom contact FET.
Series [6] is described as follows: Threshold voltage shift after repeated driving, compound and PαMS binder (Example 3). The note with it: compound with PαMS binder; same criteria as Example 2.
Series [7] can be described thus: Carrier mobility, bottom gate/top contact element (Example 4). The note with it: bottom gate/top contact FET on octyltrichlorosilane-treated SiO2 (370 nm), W=5 mm, L=80 μm.
The mark [8] stands for this setting: listed as comparative compound 1.

Take `CCCCCCCCCCCCc1cc2sc3cc4sc5cc(CCCCCCCCCCCC)sc5c4cc3c2s1` [Compound 3]: the Carrier mobility in series [1] is 7.4 × 10^−2 cm^2/Vs; in series [5] it was 3.3 × 10^−2 cm^2/Vs; in series [7], 3.6 × 10^−2 cm^2/Vs. Besides, the “Threshold voltage shift after repeated driving” value (“Threshold voltage shift” below) in series [2] and in series [6] was “A (|Vafter−Vbefore|≦5 V)” throughout. Besides, the Variation result in series [3] is listed as “A (The difference in carrier mobility was less than 20%.)”. The Heat resistance entry in series [4] is listed as “A (The decrease in mobility was less than 10%.)”.

As for `CCCCCCCCc1csc2c1sc1cc3sc4c(CCCCCCCC)csc4c3cc12` [Compound 2], the Carrier mobility in series [1] was 8.1 × 10^−3 cm^2/Vs; in series [5] it was 9.1 × 10^−3 cm^2/Vs. In addition, the “Threshold voltage shift” value in series [2] and in series [6] was “A (|Vafter−Vbefore|≦5 V)” each time. Also, the Variation entry in series [3] is “B (The difference in carrier mobility was equal to or greater than 20% and less than 50%.)”. For the same compound, the Heat resistance result in series [4] was “B (The decrease in mobility was equal to or greater than 10% and less than 30%.)”.

Regarding `CCCCCCCCOc1ccc(-c2cc3sc4cc5sc6cc(-c7ccc(OCCCCCCCC)cc7)sc6c5cc4c3s2)cc1` [Compound 10], the Carrier mobility in series [1] is given as 8.7 × 10^−3 cm^2/Vs. Also, in series [2], the “Threshold voltage shift” value is given as “A (|Vafter−Vbefore|≦5 V)”. Moreover, the Variation entry in series [3] is “B (The difference in carrier mobility was equal to or greater than 20% and less than 50%.)”. In addition, the Heat resistance result in series [4] was “B (The decrease in mobility was equal to or greater than 10% and less than 30%.)”.

With `CCc1cc2sc3cc4sc5cc(CC)sc5c4cc3c2s1` [Comparative compound 1, reference compound], the Carrier mobility in series [1] is 5.4 × 10^−4 cm^2/Vs; in series [5], 2.2 × 10^−4 cm^2/Vs; in series [5] (setting [8]), “low carrier mobility”; in series [7], 8.5 × 10^−5 cm^2/Vs; in series [7] (setting [8]), “low carrier mobility”. The “Threshold voltage shift” value in series [2] and in series [6] was “C (|Vafter−Vbefore|>10 V)” throughout. In addition, in series [3], the Variation result is given as “C (The difference in carrier mobility was equal to or greater than 50%.)”. Also, in series [4], the Heat resistance result is “C (The decrease in mobility was equal to or greater than 30%.)”.

As to `CC(C)CCCC(C)CCc1cc2sc3cc4sc5cc(CCC(C)CCCC(C)C)sc5c4cc3c2s1` (stereo not drawn) [Compound 31], the Carrier mobility in series [1] is listed as 5.8 × 10^−2 cm^2/Vs. Moreover, the “Threshold voltage shift” value in series [2] is listed as “A (|Vafter−Vbefore|≦5 V)”. For the same compound, in series [3], the Variation entry is on record as “A (The difference in carrier mobility was less than 20%.)”. Besides, the Heat resistance entry in series [4] was “B (The decrease in mobility was equal to or greater than 10% and less than 30%.)”.

For the compound `CCCCCCCCc1ccc(-c2cc3sc4cc5sc6cc(-c7ccc(CCCCCCCC)s7)sc6c5cc4c3s2)s1` [Compound 4], the figures for the Carrier mobility in series [1], in series [5] and in series [7] were 4.9 × 10^−2 cm^2/Vs, 7.5 × 10^−2 cm^2/Vs and 8.5 × 10^−2 cm^2/Vs, respectively. Besides, the “Threshold voltage shift” value in series [2] and in series [6] was “A (|Vafter−Vbefore|≦5 V)” each time. Besides, in series [3], the Variation result is “B (The difference in carrier mobility was equal to or greater than 20% and less than 50%.)”. In series [4], the Heat resistance result is on record as “A (The decrease in mobility was less than 10%.)”.

As to `CCCCCCCCc1csc(-c2cc3sc4cc5sc6cc(-c7cc(CCCCCCCC)cs7)sc6c5cc4c3s2)c1` [Compound 5], the Carrier mobility is reported as 7.3 × 10^−2 cm^2/Vs in series [1] and 9.4 × 10^−2 cm^2/Vs in series [5]. Moreover, the “Threshold voltage shift” value in series [2] and in series [6] was “A (|Vafter−Vbefore|≦5 V)” each time. In addition, the Variation result in series [3] is “B (The difference in carrier mobility was equal to or greater than 20% and less than 50%.)”. In series [4], the Heat resistance entry is recorded as “A (The decrease in mobility was less than 10%.)”.

`CCCCCCCCCCCCCCCCCCCCCCc1cc2sc3cc4sc5cc(CCCCCCCCCCCCCCCCCCCCCC)sc5c4cc3c2s1` [Compound 41]: in series [1], the Carrier mobility is 7.4 × 10^−3 cm^2/Vs. In addition, the “Threshold voltage shift” value in series [2] is on record as “A (|Vafter−Vbefore|≦5 V)”. Also, the Variation result in series [3] is “B (The difference in carrier mobility was equal to or greater than 20% and less than 50%.)”. In addition, in series [4], the Heat resistance entry is “B (The decrease in mobility was equal to or greater than 10% and less than 30%.)”.

With `CCCCCCCCc1cc2sc3cc4sc5cc(CCCCCCCC)sc5c4cc3c2s1` [Compound 1], the Carrier mobility in series [1] is reported as 5.0 × 10^−2 cm^2/Vs; in series [5], 8.8 × 10^−2 cm^2/Vs; in series [7] it was 5.5 × 10^−2 cm^2/Vs. Also, the Variation entry in series [3] is “B (The difference in carrier mobility was equal to or greater than 20% and less than 50%.)”. Further, in series [4], the Heat resistance entry was “B (The decrease in mobility was equal to or greater than 10% and less than 30%.)”.

For `CCCCCCCCc1cc2sc3cc4sc5cc(CCCCCCCC)oc5c4cc3c2o1` [Compound 21], the Carrier mobility in series [1] is on record as 5.0 × 10^−2 cm^2/Vs. Also, the “Threshold voltage shift” value in series [2] is recorded as “A (|Vafter−Vbefore|≦5 V)”. Further, the Variation result in series [3] was “B (The difference in carrier mobility was equal to or greater than 20% and less than 50%.)”. The Heat resistance result in series [4] is “B (The decrease in mobility was equal to or greater than 10% and less than 30%.)”.

On to `CC(C)CCCC(C)CCc1ccc(-c2cc3sc4cc5sc6cc(-c7ccc(CCC(C)CCCC(C)C)s7)sc6c5cc4c3s2)s1` (stereo not drawn) [Compound 33], for which, in series [1], the Carrier mobility is on record as 8.0 × 10^−2 cm^2/Vs. In addition, the “Threshold voltage shift” value in series [2] is on record as “A (|Vafter−Vbefore|≦5 V)”. For the same compound, the Variation entry in series [3] is “A (The difference in carrier mobility was less than 20%.)”. In series [4], the Heat resistance result is reported as “A (The decrease in mobility was less than 10%.)”.

With `CCCCCCCCc1ccc(-c2cc3sc4cc5sc6cc(-c7ccc(CCCCCCCC)o7)sc6c5cc4c3s2)o1` [Compound 8], in series [1], the Carrier mobility is given as 1.5 × 10^−2 cm^2/Vs. Besides, the “Threshold voltage shift” value in series [2] is listed as “A (|Vafter−Vbefore|≦5 V)”. Moreover, in series [3], the Variation result was “B (The difference in carrier mobility was equal to or greater than 20% and less than 50%.)”. For the same compound, the Heat resistance entry in series [4] is listed as “A (The decrease in mobility was less than 10%.)”.

In the case of `CCCCCCCCc1ccc(-c2cc3sc4cc5sc6cc(-c7ccc(CCCCCCCC)cc7)sc6c5cc4c3s2)cc1` [Compound 9], the Carrier mobility in series [1] is recorded as 3.4 × 10^−2 cm^2/Vs; in series [7] it was 8.8 × 10^−2 cm^2/Vs. Moreover, the “Threshold voltage shift” value in series [2] is recorded as “B (5 V<|Vafter−Vbefore|≦10 V)”. The Variation entry in series [3] was “B (The difference in carrier mobility was equal to or greater than 20% and less than 50%.)”. Besides, the Heat resistance entry in series [4] is “A (The decrease in mobility was less than 10%.)”.
